Source: paper doi:10.1101/2025.09.30.25337017

Target: T1, HSPA13 (UniProt P48723)
T1 sequence: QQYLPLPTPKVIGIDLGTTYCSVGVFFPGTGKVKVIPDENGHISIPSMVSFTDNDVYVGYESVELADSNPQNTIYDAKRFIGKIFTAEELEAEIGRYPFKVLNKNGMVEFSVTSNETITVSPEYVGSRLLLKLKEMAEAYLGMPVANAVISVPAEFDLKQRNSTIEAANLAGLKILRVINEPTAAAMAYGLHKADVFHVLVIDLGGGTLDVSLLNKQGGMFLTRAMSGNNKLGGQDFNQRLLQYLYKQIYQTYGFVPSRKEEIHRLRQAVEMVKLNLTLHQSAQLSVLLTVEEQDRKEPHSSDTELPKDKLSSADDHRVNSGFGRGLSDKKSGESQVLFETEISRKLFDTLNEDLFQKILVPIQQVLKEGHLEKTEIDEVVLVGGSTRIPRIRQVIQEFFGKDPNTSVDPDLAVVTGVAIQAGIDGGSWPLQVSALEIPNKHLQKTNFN
Test: co-IP

Substance: DDR1
- binding: binds

Results are given in words; binding and its absence hold for the method and conditions named. Binding seen in cells or lysates may run through a third protein. A result given as binding can be weak or reduced; the word gives no strength.
